These results are taken from PMC6783653, “TIP30 counteracts cardiac hypertrophy and failure by inhibiting translational elongation” (EMBO Molecular Medicine, 2019).

Sequences of proteins named here, by UniProt entry; tags and fusion partners are left off.
UniProt P13383: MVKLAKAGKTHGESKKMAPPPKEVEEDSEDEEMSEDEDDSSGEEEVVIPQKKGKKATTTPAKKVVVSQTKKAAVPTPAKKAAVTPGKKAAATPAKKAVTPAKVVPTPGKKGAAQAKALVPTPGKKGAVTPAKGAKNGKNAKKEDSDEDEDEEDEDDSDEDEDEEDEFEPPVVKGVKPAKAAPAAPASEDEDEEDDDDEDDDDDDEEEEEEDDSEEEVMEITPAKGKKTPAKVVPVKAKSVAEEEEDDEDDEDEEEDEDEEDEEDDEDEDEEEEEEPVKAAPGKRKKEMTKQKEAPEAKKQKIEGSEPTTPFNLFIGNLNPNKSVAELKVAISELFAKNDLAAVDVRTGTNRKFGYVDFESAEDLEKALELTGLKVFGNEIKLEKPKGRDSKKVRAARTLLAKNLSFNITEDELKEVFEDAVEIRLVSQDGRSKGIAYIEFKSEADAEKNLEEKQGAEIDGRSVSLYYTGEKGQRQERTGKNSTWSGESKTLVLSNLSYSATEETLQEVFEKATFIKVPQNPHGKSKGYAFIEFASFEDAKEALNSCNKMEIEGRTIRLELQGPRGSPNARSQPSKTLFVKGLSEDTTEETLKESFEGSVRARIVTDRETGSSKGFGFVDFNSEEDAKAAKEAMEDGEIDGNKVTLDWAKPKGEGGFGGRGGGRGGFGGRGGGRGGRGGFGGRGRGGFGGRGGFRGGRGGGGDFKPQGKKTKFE
UniProt A7VJC2: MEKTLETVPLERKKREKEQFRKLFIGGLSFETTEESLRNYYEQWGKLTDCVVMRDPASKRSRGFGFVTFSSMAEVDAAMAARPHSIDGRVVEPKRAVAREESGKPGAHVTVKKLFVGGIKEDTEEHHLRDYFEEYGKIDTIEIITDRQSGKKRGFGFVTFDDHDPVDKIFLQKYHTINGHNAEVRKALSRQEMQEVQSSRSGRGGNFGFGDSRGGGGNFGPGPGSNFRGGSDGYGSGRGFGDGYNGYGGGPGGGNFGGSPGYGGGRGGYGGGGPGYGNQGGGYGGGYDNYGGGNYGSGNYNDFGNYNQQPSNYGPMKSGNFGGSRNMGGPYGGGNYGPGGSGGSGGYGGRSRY
UniProt P62630: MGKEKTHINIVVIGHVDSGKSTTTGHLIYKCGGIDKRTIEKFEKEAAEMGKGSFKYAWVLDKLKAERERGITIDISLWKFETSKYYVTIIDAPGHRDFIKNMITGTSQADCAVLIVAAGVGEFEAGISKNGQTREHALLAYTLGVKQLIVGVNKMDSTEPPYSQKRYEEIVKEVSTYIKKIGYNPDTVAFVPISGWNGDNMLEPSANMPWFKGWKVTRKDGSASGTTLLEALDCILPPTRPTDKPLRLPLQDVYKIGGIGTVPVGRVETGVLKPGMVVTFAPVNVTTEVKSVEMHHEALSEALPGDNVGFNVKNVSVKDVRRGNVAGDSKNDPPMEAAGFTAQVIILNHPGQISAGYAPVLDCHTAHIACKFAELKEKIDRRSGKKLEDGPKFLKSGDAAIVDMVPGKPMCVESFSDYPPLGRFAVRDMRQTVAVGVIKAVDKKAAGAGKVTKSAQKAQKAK

No constants are given. Whether binding was seen depends on the method and setting. Binding seen in cells or lysates may run through a third protein. Here binding means that the protein was enriched with, or labelled near, the bait; the list need not be complete. Where a sequence is shown, tags or fusion partners need not be part of it.

In the experiment the target is T1, GST-TIP30 (full-length TIP30, GST fusion, bacterial) (rat) (UniProt B0BNF8).
T1 sequence: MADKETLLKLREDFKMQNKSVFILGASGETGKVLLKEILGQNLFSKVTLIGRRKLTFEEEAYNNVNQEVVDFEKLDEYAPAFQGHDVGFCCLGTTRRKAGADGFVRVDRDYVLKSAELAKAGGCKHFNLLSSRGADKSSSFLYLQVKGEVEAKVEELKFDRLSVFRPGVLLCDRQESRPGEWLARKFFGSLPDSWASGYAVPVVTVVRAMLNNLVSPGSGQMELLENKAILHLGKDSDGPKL
The experiment can be described thus: affinity purification with mass spectrometry; GST or GST-TIP30 pull-down from neonatal rat cardiomyocyte lysate; bands apparent only in the GST-TIP30 lane excised from SDS-PAGE and identified by mass spectrometry; only the target purified.
Consider “endogenous nucleolin of neonatal rat cardiomyocytes (from UniProt P13383 1-713)”, for which the binding result is listed as “binds”.

On to “endogenous heterogeneous nuclear ribonucleoprotein A2/B1 of neonatal rat cardiomyocytes (from UniProt A7VJC2 1-353)”, for which the binding result is listed as “binds”.

With “endogenous eEF1A1 of neonatal rat cardiomyocytes (from UniProt P62630 1-462)”, the binding entry is “binds”.
